PubChem BioAssay AID1053209 – Peter MacCallum Cancer Centre | 2014
Shown is one part, drawn at random, of about 1,580 deposited reagents. Of all reagents, 207 (13%) are marked active. 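Rows are single siRNAs; four siRNAs per gene were tested, a gene counting as confirmed only when at least two agree.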 Reagents against one gene are numbered here. Reagent sequences are not shown.

- Screen: 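Knock-downs that sensitise mouse osteosarcoma cells to doxorubicin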 (follow-up of hits)
- System: mouse primary osteosarcoma cells
- Reagents: single siRNA against mouse genes, 25 nM (text also states 40 nM)
- Timing: about 120 h (48 h before drug, then 72 h with drug)
- Treatment: doxorubicin 100 nM (about IC30-40), added 48 h after transfection, for 72 h
- Detection: 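ATP-based luminescent viability, with or without doxorubicin, relative to non-targeting control NT1, mean of two replicates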
- Scale: viability with doxorubicin, vs NT1: higher = more viable cells under doxorubicin; viability ratio, doxorubicin over no drug: higher = less sensitisation to doxorubicin; viability without drug, vs NT1: higher = more viable cells without drug
- Hit rule: 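Active when doxorubicin viability is at most 0.7 of NT1 and drug-free viability lies between 0.7 and 1.1, class LC dox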

| Target gene | reagent | combined effect class | viability with doxorubicin, vs NT1 | viability ratio, doxorubicin over no drug | viability without drug, vs NT1 | Call |
| --- | --- | --- | --- | --- | --- | --- |
| Pcdhb11 | 1 | low viability only with doxorubicin; normal without drug | 0.42 | 0.55 | 0.76 | active |
| Pcdhb11 | 2 | high viability only without drug | 1.08 | 0.96 | 1.12 | inactive |
| Pcdhb11 | 3 | low viability only with doxorubicin; normal without drug | 0.7 | 0.8 | 0.88 | active |
| Pcdhb11 | 4 | normal viability with and without drug | 1.02 | 1 | 1.02 | inactive |
| Copg1 | 1 | low viability with and without drug | 0.44 | 0.63 | 0.7 | inactive |
| Copg1 | 2 | low viability only with doxorubicin; normal without drug | 0.6 | 0.68 | 0.88 | active |
| Copg1 | 3 | low viability only with doxorubicin; normal without drug | 0.33 | 0.46 | 0.71 | active |
| Copg1 | 4 | low viability only with doxorubicin; normal without drug | 0.6 | 0.74 | 0.81 | active |
| Snrpa1 | 1 | normal viability with and without drug | 0.8 | 0.84 | 0.95 | inactive |
| Snrpa1 | 2 | low viability with and without drug | 0.12 | 0.26 | 0.46 | inactive |
| Snrpa1 | 3 | low viability with and without drug | 0.14 | 0.25 | 0.57 | inactive |
| Snrpa1 | 4 | low viability with and without drug | 0.19 | 0.3 | 0.63 | inactive |
| Bag1 | 1 | normal viability with and without drug | 1.06 | 1.1 | 0.96 | inactive |
| Bag1 | 2 | normal viability with and without drug | 0.88 | 0.88 | 1 | inactive |
| Bag1 | 3 | normal viability with and without drug | 1.04 | 1.11 | 0.94 | inactive |
| Bag1 | 4 | normal viability with and without drug | 1.06 | 1.1 | 0.96 | inactive |
| Prkag3 | 1 | normal viability with and without drug | 0.9 | 0.98 | 0.92 | inactive |
| Prkag3 | 2 | normal viability with and without drug | 0.93 | 0.9 | 1.03 | inactive |
| Prkag3 | 3 | high viability with and without drug | 1.22 | 1.02 | 1.2 | inactive |
| Prkag3 | 4 | normal viability with and without drug | 1.02 | 1.02 | 1 | inactive |
| Rbm39 | 1 | low viability only with doxorubicin; normal without drug | 0.68 | 0.71 | 0.96 | active |
| Rbm39 | 2 | normal viability with and without drug | 0.75 | 0.76 | 0.99 | inactive |
| Rbm39 | 3 | normal viability with and without drug | 1.04 | 1.02 | 1.02 | inactive |
| Rbm39 | 4 | low viability only with doxorubicin; normal without drug | 0.38 | 0.44 | 0.86 | active |
| Smndc1 | 1 | normal viability with and without drug | 1.02 | 1.13 | 0.9 | inactive |
| Smndc1 | 2 | high viability only with doxorubicin | 1.19 | 1.18 | 1.01 | inactive |
| Smndc1 | 3 | normal viability with and without drug | 0.94 | 1.07 | 0.88 | inactive |
| Smndc1 | 4 | normal viability with and without drug | 1.09 | 1.18 | 0.92 | inactive |
| Taco1 | 1 | normal viability with and without drug | 0.9 | 0.96 | 0.94 | inactive |
| Taco1 | 2 | normal viability with and without drug | 0.82 | 0.98 | 0.84 | inactive |
| Taco1 | 3 | normal viability with and without drug | 0.84 | 0.93 | 0.9 | inactive |
| Taco1 | 4 | normal viability with and without drug | 1.07 | 1.02 | 1.05 | inactive |
| Psmd12 | 1 | low viability only with doxorubicin; normal without drug | 0.44 | 0.61 | 0.72 | active |
| Psmd12 | 2 | low viability only with doxorubicin; normal without drug | 0.55 | 0.72 | 0.76 | active |
| Psmd12 | 3 | low viability with and without drug | 0.36 | 0.64 | 0.56 | inactive |
| Psmd12 | 4 | low viability only with doxorubicin; normal without drug | 0.48 | 0.64 | 0.75 | active |
| Rps17 | 1 | low viability with and without drug | 0.19 | 0.76 | 0.25 | inactive |
| Rps17 | 2 | low viability with and without drug | 0.31 | 0.65 | 0.48 | inactive |
| Rps17 | 3 | low viability with and without drug | 0.24 | 0.89 | 0.27 | inactive |
| Rps17 | 4 | low viability with and without drug | 0.42 | 0.74 | 0.57 | inactive |
| Phf5a | 1 | low viability with and without drug | 0.06 | 0.2 | 0.3 | inactive |
| Phf5a | 2 | low viability with and without drug | 0.32 | 0.56 | 0.57 | inactive |
| Phf5a | 3 | low viability with and without drug | 0.34 | 0.64 | 0.53 | inactive |
| Phf5a | 4 | low viability with and without drug | 0.44 | 0.63 | 0.7 | inactive |
| Pold2 | 1 | low viability only with doxorubicin; normal without drug | 0.7 | 0.71 | 0.98 | active |
| Pold2 | 2 | normal viability with and without drug | 0.98 | 0.95 | 1.03 | inactive |
| Pold2 | 3 | normal viability with and without drug | 0.9 | 0.98 | 0.92 | inactive |
| Pold2 | 4 | normal viability with and without drug | 1.03 | 1.02 | 1.01 | inactive |
| Snrpb | 1 | low viability with and without drug | 0.18 | 0.46 | 0.39 | inactive |
| Snrpb | 2 | low viability only with doxorubicin; normal without drug | 0.56 | 0.73 | 0.77 | active |
| Snrpb | 3 | low viability with and without drug | 0.18 | 0.5 | 0.36 | inactive |
| Snrpb | 4 | low viability with and without drug | 0.05 | 0.17 | 0.29 | inactive |
| Slc35b3 | 1 | normal viability with and without drug | 1.04 | 1 | 1.04 | inactive |
| Slc35b3 | 2 | normal viability with and without drug | 0.8 | 0.85 | 0.94 | inactive |
| Slc35b3 | 3 | normal viability with and without drug | 1 | 0.96 | 1.04 | inactive |
| Slc35b3 | 4 | normal viability with and without drug | 0.96 | 0.94 | 1.02 | inactive |
| Rps20 | 1 | normal viability with and without drug | 0.85 | 0.92 | 0.92 | inactive |
| Rps20 | 2 | normal viability with and without drug | 0.83 | 0.83 | 1 | inactive |
| Rps20 | 3 | low viability with and without drug | 0.44 | 0.76 | 0.58 | inactive |
| Rps20 | 4 | low viability with and without drug | 0.4 | 0.7 | 0.57 | inactive |

4 neighbouring reagents already listed, for reference:
| Target gene | reagent | combined effect class | viability with doxorubicin, vs NT1 | viability ratio, doxorubicin over no drug | viability without drug, vs NT1 | Call |
| --- | --- | --- | --- | --- | --- | --- |
| Prkag3 | 3 | high viability with and without drug | 1.22 | 1.02 | 1.2 | inactive |
| Prkag3 | 4 | normal viability with and without drug | 1.02 | 1.02 | 1 | inactive |
| Rbm39 | 1 | low viability only with doxorubicin; normal without drug | 0.68 | 0.71 | 0.96 | active |
| Rbm39 | 2 | normal viability with and without drug | 0.75 | 0.76 | 0.99 | inactive |
